This note sets out measurements from patent publication US20100331233.

Protein sequences, listed by entry. Tags and fused reporters are not part of them. Residues count along the entry.
UniProt P07992, 96-214: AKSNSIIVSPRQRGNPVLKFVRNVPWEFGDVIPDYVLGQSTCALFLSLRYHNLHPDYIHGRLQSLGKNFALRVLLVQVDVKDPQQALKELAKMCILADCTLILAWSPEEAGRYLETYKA

The exact form of at least one protein or probe is not confirmed.

This data set concerns the target ERCC1 central domain (ERCC1 96-214 / 92-214) (Homo sapiens) (UniProt P07992). Description: FP. The conditions noted are these: CITED Tsodikov et al. 2005; direct titration of ERCC1 at 50 nM DNA, single-site approximation; purified recombinant protein; protein details: N-terminal His6; label: 5' 6-FAM; single-stranded DNA.

For “CCGGTGGCCAGCGCTCGGCGTTTTTTTTTTTTTTTTTTTT [6FAM-labeled 40mer ssDNA]”, the dissociation constant Kd turned out to be 1500 nM.

For orientation: Kd means the free concentration of one partner at which half of the binding sites on the other are occupied at equilibrium, for simple one-to-one binding.
